The text below walks through data of paper PMC12646314, “Structure and encapsulation of carbonic anhydrase within the α-carboxysome” (Proceedings of the National Academy of Sciences of the …, 2025).

No constants are given. Whether binding was seen depends on the method and setting. For some of these results: Binding can be weak; no strength is given.

Assay [1] concerns the target T1, CsoS1A (the major shell hexamer) (Halothiobacillus neapolitanus) (UniProt P45689).
T1 sequence: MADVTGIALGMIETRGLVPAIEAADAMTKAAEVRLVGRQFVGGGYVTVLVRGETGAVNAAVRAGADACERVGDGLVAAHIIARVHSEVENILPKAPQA
As to the kind of experiment: cryo-EM structure; single-particle cryo-EM of purified T = 4 minishell/CsoSCA^ΔC (2.36 Å symmetry relaxed) and minishell/CsoSCA-C (3.05 Å); internal density seen at low contour, disordered.

Assay [2] concerns the target T2, CsoS4A (shell pentamer) (Halothiobacillus neapolitanus) (UniProt O85043).
T2 sequence: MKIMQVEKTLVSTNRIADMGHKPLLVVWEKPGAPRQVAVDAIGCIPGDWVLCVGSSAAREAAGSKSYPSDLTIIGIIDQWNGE
The assay is described as above.

As for “CsoSCA^ΔC with a C-terminal His6 tag (CTD deletion of CsoSCA) (Halothiobacillus neapolitanus) (domain or fragment)”, the results for the binding entry in assay [1] and in assay [2] were “binds” and “no binding”, respectively.

For “CsoSCA-C with a C-terminal His6 tag (C-terminal domain of CsoSCA) (Halothiobacillus neapolitanus) (domain or fragment)”, the binding result in assay [1] is recorded as “binds”; in assay [2], “no binding”.
